Assay results from patent US7541446B2, “Tet repressor-based transcriptional regulatory proteins” (Tet Systems Holding GmbH & Co. KG, priority 1999, dated 2009).
At least one structure is not confirmed: it was looked up by name or label, or the drawing left a doubt.

Protein sequences, listed by entry. Tags and fused reporters are not part of them. Chains listed by the source or under a name are the forms on record and can include a tag or linker.
UniProt P04483, other isoform, or with tags, fused parts or gaps L170V: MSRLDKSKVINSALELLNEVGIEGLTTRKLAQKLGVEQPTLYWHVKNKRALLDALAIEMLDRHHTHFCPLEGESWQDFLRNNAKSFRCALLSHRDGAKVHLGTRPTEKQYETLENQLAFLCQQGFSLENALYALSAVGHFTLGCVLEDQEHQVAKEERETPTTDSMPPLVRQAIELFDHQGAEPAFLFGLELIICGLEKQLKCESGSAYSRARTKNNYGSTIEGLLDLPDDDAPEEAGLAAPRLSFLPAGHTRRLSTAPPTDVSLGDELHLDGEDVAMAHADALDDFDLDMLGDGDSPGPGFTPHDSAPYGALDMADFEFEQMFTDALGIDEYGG

Biological target: T1, tTA-45 (L170V) (Escherichia coli, UniProt P04483, L170V)
T1 construct: expressed in transfected cells; host or cells: HeLa cells (transient transfection)
Assay: Tc/Dox repression of tTA-45-dependent luciferase activity, transient transfection in HeLa cells
Format: cell-based
Conditions: for fold less sensitive (tTA-45 compared with tTA): mutant tTA-45 versus wildtype tTA

Compound | fold less sensitive (tTA-45 compared with tTA) | IC50 (ng inducer/ml) (inducer concentration leading to 50% repression of the luciferase activity, tTA-45 (L170V), HeLa cells, transient transfection)
C[C@H]1c2cccc(O)c2C(=O)C2=C(O)[C@]3(O)C(=O)C(C(N)=O)=C(O)[C@@H](N(C)C)[C@@H]3[C@@H](O)[C@@H]21 [Dox, doxycycline] | about 10 fold | 
CN(C)[C@@H]1C(O)=C(C(N)=O)C(=O)[C@@]2(O)C(O)=C3C(=O)c4c(O)cccc4[C@@](C)(O)[C@H]3C[C@@H]12 [Tc, tetracycline] | 100 fold | 270
